# Reference: the supplement of paper PMC7125110
# ± gives the standard error. The uncertainty is large for many entries.
# B1: glmS ribozyme (parent)
# chain: AUAAAAGCGCCAGAACUACAGAAAUGUAGUUGACGAGGAGGAGGUUUAUCGAAUUUUCGGCGGAUGCCUCCAAA
# Variants of: B1
# Assay: self-cleavage kobs at 2500 uM GlcN6P; higher = faster cleavage; RNA array
# Settings: with glucosamine-6-phosphate
# Method in brief: (§1)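 Glucosamine-6-phosphate, from 40 μM to 10 mM in HEPES/KCl/Mg(OAc)2 buffer, was flowed over sequenced MiSeq chips carrying barcoded ribozyme variants transcribed in situ by E. coli RNA polymerase. A hybridised Cy3 probe tracked the variants at 37 °C as tiles were imaged over ~14 h. kobs, kcat and KM were obtained by fitting normalised per-tile medians to exponential decays and then applying weighted Michaelis–Menten fits across concentrations.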
row,Variant,self-cleavage kobs at 2500 uM GlcN6P
1,U30C U46A,2.12e-05 ± 1.6e-05 s⁻¹
2,G66U C68G C71A,2.05e-05 ± 2e-05 s⁻¹
3,G41C A42U,3.04e-05 ± 2.2e-05 s⁻¹
4,U30G A64U,2e-05 ± 1.8e-05 s⁻¹
5,U47A C61U,2.23e-05 ± 1.5e-05 s⁻¹
6,U31G U49C U54A G63C C68G U69G,2.75e-05 ± 1.8e-05 s⁻¹
7,G37C U45A A53U,4.35e-05 ± 3e-05 s⁻¹
8,A42C U54A C67G,5.08e-05 ± 3.2e-05 s⁻¹
9,A64U C71A,3.36e-05 ± 1.8e-05 s⁻¹
10,G66C C67G,2.11e-05 ± 1.3e-05 s⁻¹
11,G44C U55A,2.78e-05 ± 1.9e-05 s⁻¹
12,G32C C67U,1.79e-05 ± 1.4e-05 s⁻¹
13,A33G U56G A64G C70A,3.8e-05 ± 2.1e-05 s⁻¹
14,G43A A53U C70U,4.13e-05 ± 2.2e-05 s⁻¹
15,U56A C58A C70G C71U,3.98e-05 ± 2.4e-05 s⁻¹
16,G29C U65C,3.57e-05 ± 2e-05 s⁻¹
17,A33G U65A C70G,3.13e-05 ± 2.4e-05 s⁻¹
18,A39U U47A G59A C70U,4.45e-05 ± 2.7e-05 s⁻¹
19,G29U U49C C50G C70A,3.73e-05 ± 2e-05 s⁻¹
20,U55A U69G C71A,3.32e-05 ± 3e-05 s⁻¹
21,G43U G66U C67U,2.63e-05 ± 2.5e-05 s⁻¹
22,A36C C70A,4.87e-05 ± 2.6e-05 s⁻¹
23,U47G C61U,2.53e-05 ± 1.3e-05 s⁻¹
24,G37U C61G C67G,3.76e-05 ± 2.7e-05 s⁻¹

row,Variant,self-cleavage kobs at 2500 uM GlcN6P
1,C58G U69A,3.21e-05 ± 2.5e-05 s⁻¹
2,G44U C50U C67G,2.81e-05 ± 2.1e-05 s⁻¹
3,G32U A42G U46C,3.23e-05 ± 2.7e-05 s⁻¹
4,U31A C50G U65G,3.72e-05 ± 2.6e-05 s⁻¹
5,G32C G66A,1.42e-05 ± 1.2e-05 s⁻¹
6,A52U U65G,2e-05 ± 1.1e-05 s⁻¹
7,U57A G63A U69A,3.43e-05 ± 3.3e-05 s⁻¹
8,U30C G41U,4.59e-05 ± 2.3e-05 s⁻¹
9,G29A U57A,3.19e-05 ± 3e-05 s⁻¹
10,U47C A53G C58G C70A,2.91e-05 ± 2.8e-05 s⁻¹
11,U47G U56G C61U C67G C70U,6.53e-05 ± 3.8e-05 s⁻¹
12,G63A C70G C71G,3.54e-05 ± 2.6e-05 s⁻¹
13,U57G G66A,2.02e-05 ± 1.6e-05 s⁻¹
14,U65A C67G C71G,3.43e-05 ± 2.4e-05 s⁻¹
15,G37A A53G C58A,3.64e-05 ± 2.5e-05 s⁻¹
16,G37C C70G,2.14e-05 ± 1.8e-05 s⁻¹
17,U45G U69C,0.0334 ± 0.026 s⁻¹
18,U45G A64U,3.67e-05 ± 2e-05 s⁻¹
19,C50A C61G,2.94e-05 ± 2.4e-05 s⁻¹
20,U57G C58A,6.19e-05 ± 3.2e-05 s⁻¹
21,U47G A52U C68G,4.51e-05 ± 3e-05 s⁻¹
22,A36C G43C A52U,4.58e-05 ± 3.4e-05 s⁻¹
23,A33G G62U U69G C70G,4.9e-05 ± 2.8e-05 s⁻¹
24,G29A G38C C70A,3.99e-05 ± 3.1e-05 s⁻¹

# Quoted from the listing (six entries):
row,Variant,self-cleavage kobs at 2500 uM GlcN6P
6,A52U U65G,2e-05 ± 1.1e-05 s⁻¹
7,U57A G63A U69A,3.43e-05 ± 3.3e-05 s⁻¹
8,U30C G41U,4.59e-05 ± 2.3e-05 s⁻¹
9,G29A U57A,3.19e-05 ± 3e-05 s⁻¹
10,U47C A53G C58G C70A,2.91e-05 ± 2.8e-05 s⁻¹
11,U47G U56G C61U C67G C70U,6.53e-05 ± 3.8e-05 s⁻¹

# Variants of: B1
# Assay: self-cleavage kobs at 10000 uM GlcN6P; higher = faster cleavage; RNA array
# Settings: with glucosamine-6-phosphate
# Method in brief: as §1
row,Variant,self-cleavage kobs at 10000 uM GlcN6P
1,G13C G40U,2.8e-05 ± 1.5e-05 s⁻¹
2,A15C U54C C70U C71U,2.61e-05 ± 2e-05 s⁻¹
3,G7U G37A C58U U69G,3.26e-05 ± 2.1e-05 s⁻¹
4,A14U G32U C71G,3.07e-05 ± 1.6e-05 s⁻¹
5,C11A U31C C71U,2.5e-05 ± 1.5e-05 s⁻¹
6,U30C A36C C70A,2.55e-05 ± 2.4e-05 s⁻¹
7,A12G A15U U54C C67G,3.06e-05 ± 1.7e-05 s⁻¹
8,U30C G32U C34G C50G,3.45e-05 ± 2e-05 s⁻¹
9,C34U U65A C68A,3.25e-05 ± 2.4e-05 s⁻¹
10,C11U G66C,1.94e-05 ± 1.6e-05 s⁻¹
11,C16A U47A C67G,2.84e-05 ± 2.4e-05 s⁻¹
12,G9A U54A,2.39e-05 ± 1.5e-05 s⁻¹
13,A12U C61U,2.19e-05 ± 1.3e-05 s⁻¹
14,C8U C58U C68A,2.52e-05 ± 2.5e-05 s⁻¹
15,G13U G41C U49G C70G,2.66e-05 ± 1.5e-05 s⁻¹
16,G13C U69G,6.85e-05 ± 3.8e-05 s⁻¹
17,A36C C70A,1.87e-05 ± 1.7e-05 s⁻¹
18,U47G C61U,1.54e-05 ± 1.3e-05 s⁻¹
19,A15U U30A A53U C58A U65C U69A C71G,2.02e-05 ± 1.9e-05 s⁻¹

row,Variant,self-cleavage kobs at 10000 uM GlcN6P
1,G7U C68G,0.000435 ± 0.00034 s⁻¹
2,A12G G37A U45G,1.57e-05 ± 1.1e-05 s⁻¹
3,A15U G41C,1.44e-05 ± 1.3e-05 s⁻¹
4,A12G U57G,2.06e-05 ± 1.8e-05 s⁻¹
5,U30C G41U,1.39e-05 ± 1.1e-05 s⁻¹
6,C19A G43U,2.32e-05 ± 2.3e-05 s⁻¹
7,U31A A39G U69C,3.16e-05 ± 2.4e-05 s⁻¹
8,U57G G66A,2.21e-05 ± 1.6e-05 s⁻¹
9,U30G U57G,1.92e-05 ± 1.2e-05 s⁻¹
10,G13A C58U C67G,2.06e-05 ± 1.7e-05 s⁻¹
11,U30G A42G C58U,4.12e-05 ± 2.5e-05 s⁻¹
12,A6G C11A C50G,0.000172 ± 0.00012 s⁻¹
13,U31G A52U U54G,3.73e-05 ± 2.2e-05 s⁻¹
14,U31A A48U U56C,3.23e-05 ± 1.9e-05 s⁻¹
15,U30G G43A,1.6e-05 ± 1.6e-05 s⁻¹
16,U57G C58A,2.06e-05 ± 1.6e-05 s⁻¹
17,U30G U56G C58U U69C,2.82e-05 ± 2.2e-05 s⁻¹
18,A33C G40A,1.64e-05 ± 1.3e-05 s⁻¹
19,A33U C50A C68G,2.25e-05 ± 2.1e-05 s⁻¹
